From publication PMC4184701 (Pharmacology Research & Perspectives, 2014) come the findings set out here.

A short description of this data set: Reaction with peroxyl radicals, AIBN-initiated autoxidation of styrene (oxygen uptake). The settings on record: autoxidation of styrene in chlorobenzene, 30°C.

As to `CCN(Cc1ccccc1)Cc1ccc(-c2cc3cc(O)c(O)cc3oc2=O)cc1` [AP2469, 3-{4-[(Benzylethylamino)-methyl]phenyl}-6,7-dihydroxychromen-2-one], the “n, number of radicals trapped by each antioxidant molecule” value came to 1.9 ± 0.2. The result for `Oc1ccccc1O` [Catechol] reads 2.0 ± 0.2; that for `O=c1c(O)c(-c2ccc(O)c(O)c2)oc2cc(O)cc(O)c12` [Quercetin], 2.1 ± 0.2.
